This passage reports log2 fold change results from the supplement of paper PMC10849652.

Protein sequences, listed by entry. Tags and fused reporters are not part of them. Lines headed by an entry give the natural chain unless they say otherwise; changes in a name come on top.
UniProt Q8NEY8: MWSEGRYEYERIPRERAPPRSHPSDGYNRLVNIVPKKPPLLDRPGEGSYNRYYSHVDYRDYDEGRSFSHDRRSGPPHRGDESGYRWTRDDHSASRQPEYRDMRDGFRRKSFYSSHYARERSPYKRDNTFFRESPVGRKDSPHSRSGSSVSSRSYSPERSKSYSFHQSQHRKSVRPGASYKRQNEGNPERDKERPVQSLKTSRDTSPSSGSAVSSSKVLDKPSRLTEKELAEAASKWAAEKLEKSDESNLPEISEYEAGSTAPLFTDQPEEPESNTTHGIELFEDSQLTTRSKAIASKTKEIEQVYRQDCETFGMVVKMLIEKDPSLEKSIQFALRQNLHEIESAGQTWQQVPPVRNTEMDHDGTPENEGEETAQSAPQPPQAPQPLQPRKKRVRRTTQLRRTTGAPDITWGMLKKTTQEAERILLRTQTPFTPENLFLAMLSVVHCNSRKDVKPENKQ
UniProt Q8IY17: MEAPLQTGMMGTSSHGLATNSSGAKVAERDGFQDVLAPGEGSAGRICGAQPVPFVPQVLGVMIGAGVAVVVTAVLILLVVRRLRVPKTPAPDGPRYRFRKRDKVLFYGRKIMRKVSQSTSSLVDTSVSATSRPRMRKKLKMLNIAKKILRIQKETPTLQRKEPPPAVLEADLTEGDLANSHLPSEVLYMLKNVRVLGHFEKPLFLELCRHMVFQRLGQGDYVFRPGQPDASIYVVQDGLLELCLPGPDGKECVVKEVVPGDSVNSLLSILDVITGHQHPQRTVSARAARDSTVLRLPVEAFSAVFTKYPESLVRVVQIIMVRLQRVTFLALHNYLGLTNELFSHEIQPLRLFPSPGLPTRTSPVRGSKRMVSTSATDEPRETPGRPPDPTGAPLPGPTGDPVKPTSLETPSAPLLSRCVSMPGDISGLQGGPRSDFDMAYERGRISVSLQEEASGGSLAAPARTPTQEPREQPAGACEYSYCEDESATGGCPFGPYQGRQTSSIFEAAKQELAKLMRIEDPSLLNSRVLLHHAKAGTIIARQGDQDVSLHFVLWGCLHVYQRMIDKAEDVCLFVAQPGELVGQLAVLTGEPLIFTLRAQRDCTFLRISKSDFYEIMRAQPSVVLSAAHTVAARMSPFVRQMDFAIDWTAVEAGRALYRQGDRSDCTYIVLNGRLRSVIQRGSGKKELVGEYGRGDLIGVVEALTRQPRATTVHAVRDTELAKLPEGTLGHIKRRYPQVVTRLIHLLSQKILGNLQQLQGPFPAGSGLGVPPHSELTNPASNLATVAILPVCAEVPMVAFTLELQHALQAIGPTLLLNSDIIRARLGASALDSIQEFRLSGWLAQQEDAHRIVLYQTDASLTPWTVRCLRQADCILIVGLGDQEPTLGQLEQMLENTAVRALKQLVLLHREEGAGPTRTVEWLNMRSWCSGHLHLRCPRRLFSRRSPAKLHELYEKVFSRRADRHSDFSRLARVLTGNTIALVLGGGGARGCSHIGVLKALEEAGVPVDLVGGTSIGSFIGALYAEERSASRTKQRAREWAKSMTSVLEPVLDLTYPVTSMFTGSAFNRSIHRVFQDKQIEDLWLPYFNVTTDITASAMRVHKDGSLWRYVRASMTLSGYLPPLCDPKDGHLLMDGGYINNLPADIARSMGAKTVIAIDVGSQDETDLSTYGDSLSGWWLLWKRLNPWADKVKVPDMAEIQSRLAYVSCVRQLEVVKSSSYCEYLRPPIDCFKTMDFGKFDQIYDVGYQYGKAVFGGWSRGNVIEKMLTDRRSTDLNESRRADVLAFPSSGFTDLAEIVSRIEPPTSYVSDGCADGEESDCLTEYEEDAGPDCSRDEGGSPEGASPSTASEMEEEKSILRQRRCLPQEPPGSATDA
UniProt P62937, whole entry, looked up: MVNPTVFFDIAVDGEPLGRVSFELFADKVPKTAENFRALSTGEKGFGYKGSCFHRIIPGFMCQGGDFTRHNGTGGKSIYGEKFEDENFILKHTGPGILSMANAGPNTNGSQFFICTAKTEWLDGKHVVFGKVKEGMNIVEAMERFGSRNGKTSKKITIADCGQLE
UniProt Q8NBT0: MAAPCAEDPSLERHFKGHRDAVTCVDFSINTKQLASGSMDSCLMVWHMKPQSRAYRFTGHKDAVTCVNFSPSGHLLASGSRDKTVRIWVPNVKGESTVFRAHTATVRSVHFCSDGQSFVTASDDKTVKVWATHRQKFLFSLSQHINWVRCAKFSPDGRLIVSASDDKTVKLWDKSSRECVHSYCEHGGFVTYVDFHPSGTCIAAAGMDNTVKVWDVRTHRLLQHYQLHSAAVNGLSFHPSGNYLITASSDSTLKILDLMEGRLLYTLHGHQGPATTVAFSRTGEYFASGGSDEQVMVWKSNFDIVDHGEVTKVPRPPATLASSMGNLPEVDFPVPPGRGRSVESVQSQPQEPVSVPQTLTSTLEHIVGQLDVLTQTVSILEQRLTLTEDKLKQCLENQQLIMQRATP
UniProt Q8TD55: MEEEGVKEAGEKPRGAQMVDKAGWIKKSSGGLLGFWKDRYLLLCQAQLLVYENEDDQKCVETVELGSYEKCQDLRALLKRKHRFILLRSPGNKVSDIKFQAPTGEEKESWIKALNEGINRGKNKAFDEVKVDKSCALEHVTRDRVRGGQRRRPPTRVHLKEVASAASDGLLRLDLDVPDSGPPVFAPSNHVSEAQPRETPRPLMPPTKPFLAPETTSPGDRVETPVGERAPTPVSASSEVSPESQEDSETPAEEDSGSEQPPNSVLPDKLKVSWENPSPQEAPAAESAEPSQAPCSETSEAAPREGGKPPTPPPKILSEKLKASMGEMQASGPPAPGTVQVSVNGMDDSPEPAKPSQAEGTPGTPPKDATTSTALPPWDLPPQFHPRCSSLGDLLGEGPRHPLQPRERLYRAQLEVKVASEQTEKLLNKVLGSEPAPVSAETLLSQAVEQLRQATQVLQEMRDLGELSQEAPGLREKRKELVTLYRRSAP
UniProt O00411: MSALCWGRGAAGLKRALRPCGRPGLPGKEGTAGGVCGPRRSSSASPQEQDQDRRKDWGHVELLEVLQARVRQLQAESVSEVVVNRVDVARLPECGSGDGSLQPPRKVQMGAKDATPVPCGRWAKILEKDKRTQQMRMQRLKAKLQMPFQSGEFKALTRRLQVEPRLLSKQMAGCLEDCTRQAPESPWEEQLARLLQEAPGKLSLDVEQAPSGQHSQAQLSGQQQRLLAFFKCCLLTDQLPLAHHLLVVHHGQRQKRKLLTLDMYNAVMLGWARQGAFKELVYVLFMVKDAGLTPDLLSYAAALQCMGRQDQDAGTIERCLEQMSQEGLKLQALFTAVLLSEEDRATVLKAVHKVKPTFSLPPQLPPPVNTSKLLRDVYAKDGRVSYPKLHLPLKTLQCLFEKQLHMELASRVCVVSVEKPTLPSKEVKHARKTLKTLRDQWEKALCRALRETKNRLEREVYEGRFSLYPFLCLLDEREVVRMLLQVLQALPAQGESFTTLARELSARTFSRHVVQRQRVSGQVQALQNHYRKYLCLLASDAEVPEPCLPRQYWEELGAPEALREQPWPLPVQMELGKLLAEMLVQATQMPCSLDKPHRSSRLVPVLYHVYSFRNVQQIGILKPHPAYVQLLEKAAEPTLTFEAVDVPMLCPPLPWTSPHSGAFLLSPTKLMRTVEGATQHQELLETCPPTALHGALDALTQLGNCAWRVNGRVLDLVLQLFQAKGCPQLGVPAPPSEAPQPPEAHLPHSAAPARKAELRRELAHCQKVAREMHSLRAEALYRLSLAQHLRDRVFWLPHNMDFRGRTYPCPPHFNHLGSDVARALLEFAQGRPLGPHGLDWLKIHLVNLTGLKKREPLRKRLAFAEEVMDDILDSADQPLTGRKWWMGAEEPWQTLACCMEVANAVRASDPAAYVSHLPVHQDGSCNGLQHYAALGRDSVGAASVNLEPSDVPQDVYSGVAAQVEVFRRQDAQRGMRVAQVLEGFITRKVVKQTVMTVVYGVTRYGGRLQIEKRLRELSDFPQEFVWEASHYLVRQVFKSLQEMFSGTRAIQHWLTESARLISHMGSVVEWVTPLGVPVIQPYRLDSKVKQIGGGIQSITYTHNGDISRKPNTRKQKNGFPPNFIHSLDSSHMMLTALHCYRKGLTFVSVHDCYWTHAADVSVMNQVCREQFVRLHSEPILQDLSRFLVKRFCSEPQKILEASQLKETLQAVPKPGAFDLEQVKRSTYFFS
UniProt Q9Y6A1: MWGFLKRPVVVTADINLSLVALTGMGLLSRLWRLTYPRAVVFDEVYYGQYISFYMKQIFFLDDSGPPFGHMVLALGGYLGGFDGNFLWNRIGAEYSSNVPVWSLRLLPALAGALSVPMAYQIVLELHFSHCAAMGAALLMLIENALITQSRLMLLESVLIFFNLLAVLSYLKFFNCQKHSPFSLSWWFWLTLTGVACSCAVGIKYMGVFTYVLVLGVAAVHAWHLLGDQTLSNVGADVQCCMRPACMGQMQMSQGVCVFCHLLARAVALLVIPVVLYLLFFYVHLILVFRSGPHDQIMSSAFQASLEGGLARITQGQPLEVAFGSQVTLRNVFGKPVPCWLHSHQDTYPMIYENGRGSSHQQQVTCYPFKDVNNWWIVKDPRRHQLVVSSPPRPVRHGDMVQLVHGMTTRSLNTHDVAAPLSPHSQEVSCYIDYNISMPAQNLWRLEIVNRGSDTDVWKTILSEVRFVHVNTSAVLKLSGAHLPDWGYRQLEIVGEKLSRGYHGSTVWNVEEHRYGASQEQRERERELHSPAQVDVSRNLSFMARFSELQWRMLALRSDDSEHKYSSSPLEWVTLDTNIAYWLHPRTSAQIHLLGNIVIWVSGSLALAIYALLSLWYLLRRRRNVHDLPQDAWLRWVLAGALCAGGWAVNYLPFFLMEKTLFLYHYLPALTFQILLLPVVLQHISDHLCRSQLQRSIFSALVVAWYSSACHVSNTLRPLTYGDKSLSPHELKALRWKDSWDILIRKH
UniProt Q8WVV4: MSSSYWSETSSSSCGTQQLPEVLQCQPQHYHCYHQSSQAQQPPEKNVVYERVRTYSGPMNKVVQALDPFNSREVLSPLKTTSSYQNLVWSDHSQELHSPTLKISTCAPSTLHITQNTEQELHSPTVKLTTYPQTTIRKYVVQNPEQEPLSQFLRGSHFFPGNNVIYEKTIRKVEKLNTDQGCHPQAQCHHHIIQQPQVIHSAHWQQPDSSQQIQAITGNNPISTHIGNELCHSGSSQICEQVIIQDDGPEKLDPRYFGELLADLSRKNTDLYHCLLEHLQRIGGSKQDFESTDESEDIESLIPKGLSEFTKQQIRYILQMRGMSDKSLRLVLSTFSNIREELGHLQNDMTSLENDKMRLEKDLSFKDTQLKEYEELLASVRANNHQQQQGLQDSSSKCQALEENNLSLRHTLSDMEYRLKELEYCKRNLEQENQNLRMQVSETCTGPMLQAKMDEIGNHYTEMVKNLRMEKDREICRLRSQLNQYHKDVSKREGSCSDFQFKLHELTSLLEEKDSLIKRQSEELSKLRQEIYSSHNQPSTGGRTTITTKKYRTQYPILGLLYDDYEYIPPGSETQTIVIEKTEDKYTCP
UniProt Q9NUX5: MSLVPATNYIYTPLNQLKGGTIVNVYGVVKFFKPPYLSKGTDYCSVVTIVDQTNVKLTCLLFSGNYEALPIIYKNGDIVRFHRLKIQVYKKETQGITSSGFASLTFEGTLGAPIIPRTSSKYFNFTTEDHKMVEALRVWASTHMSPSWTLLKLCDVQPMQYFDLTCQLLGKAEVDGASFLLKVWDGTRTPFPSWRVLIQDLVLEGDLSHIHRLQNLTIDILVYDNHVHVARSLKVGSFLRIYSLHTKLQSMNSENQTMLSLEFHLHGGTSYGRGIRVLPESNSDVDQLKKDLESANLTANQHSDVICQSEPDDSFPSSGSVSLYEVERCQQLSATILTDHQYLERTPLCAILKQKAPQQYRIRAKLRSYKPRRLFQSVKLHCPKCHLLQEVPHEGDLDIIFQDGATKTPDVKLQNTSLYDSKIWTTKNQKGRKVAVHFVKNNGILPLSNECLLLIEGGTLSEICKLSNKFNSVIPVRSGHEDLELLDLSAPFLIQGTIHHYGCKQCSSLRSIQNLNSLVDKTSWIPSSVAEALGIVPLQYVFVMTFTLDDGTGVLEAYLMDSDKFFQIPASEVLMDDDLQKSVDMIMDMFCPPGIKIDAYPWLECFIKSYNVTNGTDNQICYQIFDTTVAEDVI
UniProt Q9NRY6: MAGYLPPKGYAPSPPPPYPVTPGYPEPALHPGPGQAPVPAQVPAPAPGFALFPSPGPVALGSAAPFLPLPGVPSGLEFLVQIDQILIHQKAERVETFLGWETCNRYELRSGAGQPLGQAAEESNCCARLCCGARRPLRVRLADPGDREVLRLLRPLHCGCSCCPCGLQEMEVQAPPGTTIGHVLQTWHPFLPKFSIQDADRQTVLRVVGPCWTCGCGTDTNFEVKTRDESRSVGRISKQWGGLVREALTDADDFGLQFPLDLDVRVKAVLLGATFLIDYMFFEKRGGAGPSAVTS
UniProt Q9HCU8: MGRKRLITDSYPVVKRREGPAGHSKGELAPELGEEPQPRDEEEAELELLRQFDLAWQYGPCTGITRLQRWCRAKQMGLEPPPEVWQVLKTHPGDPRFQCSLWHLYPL

This is one part of the list.

Compound in the first assay: NCC(=O)Nc1ccc(-n2nc(C(F)(F)F)cc2-c2ccc3c(ccc4ccccc43)c2)cc1
Put plainly: log2 fold change, soluble protein after heating vs DMSO (PISA); higher = thermal stabilisation; K562 cells, 10 uM, 30 min; active = over 0.2 and 3.5 SD of the protein, either way, in both replicates (recomputed). Put shortly: (§1)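 K562 cells at 2×10^6 cells/mL were exposed to 10 μM compound for 30 min, then aliquots were heated for 3 min across 48°C-58°C, pooled, and extracted in PBS containing 0.5% NP-40 at 4°C. The supernatant after 21,000xg for 90 min was taken as soluble protein and measured by TMTpro 16plex LC-MS/MS with channel sums equalised. Thermal stability is reported relative to control samples, with values from duplicates. Fold changes are given on a log2 scale.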
Regarding PPHLN1 (UniProt Q8NEY8), the log2 fold change is inactive: -0.072.

For POMT2 (UniProt Q9UKY4), the log2 fold change is inactive: 0.041.

On to PNPLA6 (UniProt Q8IY17), for which the log2 fold change is inactive: -0.032.

For the target PPIA isoform 2 (UniProt P62937), the log2 fold change was inactive: -0.306.

POC1A (UniProt Q8NBT0): the log2 fold change is inactive: 0.121.

For PLXND1 (UniProt Q9Y4D7), the log2 fold change was inactive: -0.187.

PLEKHO2 (UniProt Q8TD55): the log2 fold change is inactive: -0.127.

Consider POLRMT (UniProt O00411), for which the log2 fold change was inactive: 0.05.

In the case of PORCN (UniProt Q9H237), the log2 fold change is inactive: -0.11.

Take POMT1 (UniProt Q9Y6A1): the log2 fold change was inactive: 0.011.

POF1B isoform 1 (UniProt Q8WVV4): the log2 fold change is inactive: 0.313.

Regarding POLR1E isoform 1 (UniProt Q9GZS1), the log2 fold change was inactive: -0.376.

Consider POLR2E (UniProt P19388), for which the log2 fold change is inactive: -0.02.

Compound in the next assay: Nc1ccccc1NC(=O)c1ccc(CNC(=O)OCc2cccnc2)cc1 [entinostat]
The description is as above. Put shortly: as §1
Regarding POLR3GL (UniProt Q9BT43), the log2 fold change is inactive: -0.023.

As to POLB (UniProt P06746), the log2 fold change was inactive: 0.107.

As for POLRMT (UniProt O00411), the log2 fold change was inactive: -0.147.

As to PLS3 (UniProt H7C4N2), the log2 fold change was inactive: -0.107.

With PM20D2 (UniProt Q8IYS1), the log2 fold change was inactive: 0.051.

Regarding POT1 (UniProt Q9NUX5), the log2 fold change was inactive: -0.028.

Compound in another assay: O=C(CCCCCCC(=O)Nc1ccccc1)NO [vorinostat]
The assay is described as above. In outline: as §1
Consider PPHLN1 (UniProt Q8NEY8), for which the log2 fold change was inactive: -0.023.

For the target POLE2 (UniProt P56282), the log2 fold change is inactive: -0.076.

Turning to PLPPR3 isoform 3 (UniProt Q6T4P5), the log2 fold change is inactive: -0.007.

Consider PPIA isoform 2 (UniProt P62937), for which the log2 fold change is inactive: 0.024.

Turning to POLB (UniProt P06746), the log2 fold change was inactive: -0.106.

Take POLE (UniProt Q07864): the log2 fold change was inactive: 0.

On to PLEKHO2 (UniProt Q8TD55), for which the log2 fold change was inactive: 0.069.

PLSCR3 (UniProt Q9NRY6): the log2 fold change is inactive: -0.045.

As to PODXL (UniProt O00592), the log2 fold change is inactive: 0.692.

With POLD4 (UniProt Q9HCU8), the log2 fold change is inactive: 0.39.

As for POLR2E (UniProt P19388), the log2 fold change was inactive: -0.115.

As to POLR2J (UniProt P52435), the log2 fold change is inactive: -0.169.

On to POLQ (UniProt O75417), for which the log2 fold change was inactive: 0.139.

Compound in a further assay: O=C(CCCCCCNC(=O)c1cnc(N(c2ccccc2)c2ccccc2Cl)nc1)NO [citarinostat]
The assay is described as above. Put shortly: as §1
PPHLN1 (UniProt Q8NEY8): the log2 fold change was inactive: 0.007.

In the case of POMT2 (UniProt Q9UKY4), the log2 fold change was inactive: 0.151.

For the target PNPLA6 (UniProt Q8IY17), the log2 fold change was inactive: 0.194.

Consider PPIA isoform 2 (UniProt P62937), for which the log2 fold change was inactive: -0.105.

Take POLB (UniProt P06746): the log2 fold change was inactive: 0.189.

Turning to POC1A (UniProt Q8NBT0), the log2 fold change is inactive: -0.081.

In the case of PLXND1 (UniProt Q9Y4D7), the log2 fold change was inactive: -0.098.

On to PLOD2 isoform 2 (UniProt O00469), for which the log2 fold change was inactive: 0.093.

As to PLEKHO2 (UniProt Q8TD55), the log2 fold change is inactive: 0.1.

In the case of POF1B isoform 1 (UniProt Q8WVV4), the log2 fold change is inactive: -0.398.

Regarding POLD4 (UniProt Q9HCU8), the log2 fold change is inactive: 0.206.

As to POLR2E (UniProt P19388), the log2 fold change was inactive: -0.001.

As for POLR2J (UniProt P52435), the log2 fold change is inactive: 0.073.

Compound in another assay: O=C(O)c1ccc2c(c1)nc(Nc1cccc(Cl)c1)c1ccncc12 [silmitasertib]
Described as above. Put shortly: as §1
Consider PPHLN1 (UniProt Q8NEY8), for which the log2 fold change was inactive: 0.092.

POLR3GL (UniProt Q9BT43): the log2 fold change is inactive: -0.06.

With PNPLA6 (UniProt Q8IY17), the log2 fold change was inactive: -0.103.

With PPIA isoform 2 (UniProt P62937), the log2 fold change was inactive: 0.134.

PPIG (UniProt Q13427): the log2 fold change was inactive: 0.

As for POC1A (UniProt Q8NBT0), the log2 fold change is inactive: 0.207.

Take PLXND1 (UniProt Q9Y4D7): the log2 fold change is inactive: -0.033.

Turning to PLOD2 isoform 2 (UniProt O00469), the log2 fold change was inactive: -0.006.

With PLEKHO2 (UniProt Q8TD55), the log2 fold change was inactive: 0.17.

PPM1B isoform 2 (UniProt O75688): the log2 fold change is inactive: -0.021.

As to POLG, A0A3B3IS91, the log2 fold change was inactive: -0.176.

In the case of POMT1 (UniProt Q9Y6A1), the log2 fold change is inactive: -0.252.

In the case of POF1B isoform 1 (UniProt Q8WVV4), the log2 fold change was inactive: 0.391.

Regarding POLR1E isoform 1 (UniProt Q9GZS1), the log2 fold change was inactive: 0.017.

As for POT1 (UniProt Q9NUX5), the log2 fold change is inactive: -0.077.

In the case of POLD4 (UniProt Q9HCU8), the log2 fold change is inactive: 0.07.

POLR2E (UniProt P19388): the log2 fold change was inactive: 0.134.

For the target POLR2J (UniProt P52435), the log2 fold change is inactive: 0.006.

Take POLQ (UniProt O75417): the log2 fold change is inactive: 0.036.

As to PMS2CL (UniProt Q68D20), the log2 fold change is inactive: 0.095.

Compound in another assay: O=C1NC(=O)C(c2cnc3ccccn23)=C1c1cn2c3c(cc(F)cc13)CN(C(=O)N1CCCCC1)CC2
The assay is described as above. Put shortly:
as §1
On to PLPPR3 isoform 3 (UniProt Q6T4P5), for which the log2 fold change was inactive: -0.046.

For the target PNPLA6 (UniProt Q8IY17), the log2 fold change was inactive: 0.407.

PPIA isoform 2 (UniProt P62937): the log2 fold change is inactive: -0.049.

With POLB (UniProt P06746), the log2 fold change was inactive: 0.113.

POLRMT (UniProt O00411): the log2 fold change is inactive: -0.093.

Turning to PLS3 (UniProt H7C4N2), the log2 fold change is inactive: -0.513.

Regarding POMT1 (UniProt Q9Y6A1), the log2 fold change was inactive: 0.089.

As to PPFIA3 (UniProt O75145), the log2 fold change is inactive: 0.37.

As to POT1 (UniProt Q9NUX5), the log2 fold change was inactive: 0.103.

For POLR2E (UniProt P19388), the log2 fold change was inactive: 0.117.

Regarding POLR2J (UniProt P52435), the log2 fold change is inactive: 0.005.

Consider PMS2CL (UniProt Q68D20), for which the log2 fold change is inactive: 0.062.

On to PLEKHJ1 (UniProt Q9NW61), for which the log2 fold change was inactive: 0.133.
